Experimental findings from article PMC11951516 are described below.

Amino acid sequences for entries named in this document (tags omitted). A change or cut given only in a name is not applied to a line headed by its entry.
UniProt O43524: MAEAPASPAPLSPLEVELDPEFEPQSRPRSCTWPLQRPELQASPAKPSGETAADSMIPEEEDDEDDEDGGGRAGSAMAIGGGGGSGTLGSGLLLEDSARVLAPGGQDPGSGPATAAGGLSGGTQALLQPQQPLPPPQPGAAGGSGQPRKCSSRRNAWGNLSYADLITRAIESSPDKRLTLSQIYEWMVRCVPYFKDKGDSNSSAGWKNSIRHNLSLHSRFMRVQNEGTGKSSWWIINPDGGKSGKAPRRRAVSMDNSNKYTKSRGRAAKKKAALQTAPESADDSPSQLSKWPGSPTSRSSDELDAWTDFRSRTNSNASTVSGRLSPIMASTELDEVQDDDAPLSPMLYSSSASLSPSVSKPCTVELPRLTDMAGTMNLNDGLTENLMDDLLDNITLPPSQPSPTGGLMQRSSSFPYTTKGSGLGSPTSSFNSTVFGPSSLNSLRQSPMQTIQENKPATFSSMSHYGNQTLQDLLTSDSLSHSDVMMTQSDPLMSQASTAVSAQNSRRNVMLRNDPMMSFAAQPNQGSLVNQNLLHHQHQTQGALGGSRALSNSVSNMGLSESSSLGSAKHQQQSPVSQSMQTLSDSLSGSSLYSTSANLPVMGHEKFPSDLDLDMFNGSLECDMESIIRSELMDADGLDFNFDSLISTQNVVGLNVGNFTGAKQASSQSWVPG

Construct, isoform or probe ends are uncertain for at least one entry. Results from cells or extracts need not show a direct contact.

The data set has as its target FOXO3 (UniProt O43524). Nature of the data set: EMSA supershift. The note with it: HUDEP-2 nuclear extract, anti-FOXO3 antibody; LightShift EMSA kit (Thermo 20148X) per manufacturer's protocol; HUDEP-2 nuclear extract (NE-PER); pH and temperature not stated; protein in an extract. A general note: A gel shift assay detects complexes by their altered migration in electrophoresis.

“TTTTAGCCGCCTAAACACTTTGAGCA (double strand) [insA (MT) probe -1368/-1369 HBG2 distal promoter]”: the binding result is “binds”.
